No constants are given. Whether binding was seen depends on the method and setting. Binding seen in cells or lysates may run through a third protein. Some entries that bind do so weakly or less than the wild type.

Protein sequences, listed by entry. Tags and fused reporters are not part of them.
UniProt Q15910: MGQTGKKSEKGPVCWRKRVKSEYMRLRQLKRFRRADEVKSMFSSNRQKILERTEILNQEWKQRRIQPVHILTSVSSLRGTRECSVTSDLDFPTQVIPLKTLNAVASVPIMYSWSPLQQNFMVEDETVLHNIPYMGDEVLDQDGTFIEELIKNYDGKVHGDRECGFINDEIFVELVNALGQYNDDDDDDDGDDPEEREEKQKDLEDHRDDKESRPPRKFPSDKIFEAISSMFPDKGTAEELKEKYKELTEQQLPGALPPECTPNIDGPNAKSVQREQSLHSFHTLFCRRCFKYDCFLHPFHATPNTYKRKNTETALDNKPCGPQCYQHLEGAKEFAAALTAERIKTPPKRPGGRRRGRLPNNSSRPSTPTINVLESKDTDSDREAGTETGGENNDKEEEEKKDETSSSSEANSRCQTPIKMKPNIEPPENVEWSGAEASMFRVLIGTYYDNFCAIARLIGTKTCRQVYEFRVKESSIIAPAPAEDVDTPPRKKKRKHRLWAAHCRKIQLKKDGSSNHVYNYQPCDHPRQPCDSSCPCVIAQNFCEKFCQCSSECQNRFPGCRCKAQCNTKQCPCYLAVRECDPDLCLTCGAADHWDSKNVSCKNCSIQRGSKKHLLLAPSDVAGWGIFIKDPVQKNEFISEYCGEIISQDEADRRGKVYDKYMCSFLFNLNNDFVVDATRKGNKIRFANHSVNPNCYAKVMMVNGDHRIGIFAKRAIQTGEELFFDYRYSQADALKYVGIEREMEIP
UniProt Q00534: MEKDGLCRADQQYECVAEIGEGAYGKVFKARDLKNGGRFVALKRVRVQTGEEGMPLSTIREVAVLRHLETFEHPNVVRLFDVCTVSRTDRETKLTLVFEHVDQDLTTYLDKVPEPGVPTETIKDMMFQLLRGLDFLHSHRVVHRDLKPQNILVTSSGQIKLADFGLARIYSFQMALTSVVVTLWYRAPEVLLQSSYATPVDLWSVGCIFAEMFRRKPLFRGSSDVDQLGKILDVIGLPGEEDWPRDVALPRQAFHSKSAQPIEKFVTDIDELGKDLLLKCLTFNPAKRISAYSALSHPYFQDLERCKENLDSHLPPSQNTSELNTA

This passage reports binding results from US20220280526A1, “AGENT FOR THE TREATMENT OF PSORIASIS” (EBERHARD KARLS UNIVERSITAET TUEBINGEN MEDIZINISCHE FAKULTAET, priority 2019, published 2022).

For experiment [1], the target named is EZH2 (human) (UniProt Q15910). The experiment can be described thus: co-immunoprecipitation from HEK293T cells, FIG. 5c legend.
Experiment [2] concerns the target EZH2 (human) (UniProt Q15910). Briefly: co-immunoprecipitation (pulldown with a CDK6-specific antibody) from HEK293T cells overexpressing EZH2 and CDK6.

As for “CDK6 (from UniProt Q00534 1-326) (enzyme)”, the binding result in experiment [1] and in experiment [2] was “binds” each time.
